Laboratory results reported in paper PMC5902610.
These are yes or no findings as the source states them, for the method shown. Binding seen in cells or lysates may run through a third protein. Some results given as binding are weak or reduced against the parent protein; the word gives no strength.

Amino acid sequences for entries named in this document (tags omitted). A change or cut given only in a name is not applied to a line headed by its entry.
UniProt P26450: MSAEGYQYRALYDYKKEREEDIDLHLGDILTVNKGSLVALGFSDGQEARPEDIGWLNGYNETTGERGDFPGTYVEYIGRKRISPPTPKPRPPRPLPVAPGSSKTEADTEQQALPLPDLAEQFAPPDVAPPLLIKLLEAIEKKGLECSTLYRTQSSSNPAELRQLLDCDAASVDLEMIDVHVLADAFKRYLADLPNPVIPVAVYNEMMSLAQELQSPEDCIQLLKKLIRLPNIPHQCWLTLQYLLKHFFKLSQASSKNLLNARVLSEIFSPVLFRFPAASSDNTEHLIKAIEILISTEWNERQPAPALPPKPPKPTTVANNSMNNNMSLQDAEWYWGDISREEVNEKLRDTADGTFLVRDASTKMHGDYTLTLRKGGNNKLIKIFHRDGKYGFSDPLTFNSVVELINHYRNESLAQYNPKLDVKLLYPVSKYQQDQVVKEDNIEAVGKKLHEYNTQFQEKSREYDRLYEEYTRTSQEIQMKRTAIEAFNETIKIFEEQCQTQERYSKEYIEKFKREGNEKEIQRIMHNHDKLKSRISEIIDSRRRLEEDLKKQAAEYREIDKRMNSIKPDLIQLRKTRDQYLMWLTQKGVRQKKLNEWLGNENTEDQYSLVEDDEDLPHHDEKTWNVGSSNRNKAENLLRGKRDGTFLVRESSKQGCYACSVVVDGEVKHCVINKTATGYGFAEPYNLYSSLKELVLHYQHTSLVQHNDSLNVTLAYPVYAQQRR
UniProt P27986: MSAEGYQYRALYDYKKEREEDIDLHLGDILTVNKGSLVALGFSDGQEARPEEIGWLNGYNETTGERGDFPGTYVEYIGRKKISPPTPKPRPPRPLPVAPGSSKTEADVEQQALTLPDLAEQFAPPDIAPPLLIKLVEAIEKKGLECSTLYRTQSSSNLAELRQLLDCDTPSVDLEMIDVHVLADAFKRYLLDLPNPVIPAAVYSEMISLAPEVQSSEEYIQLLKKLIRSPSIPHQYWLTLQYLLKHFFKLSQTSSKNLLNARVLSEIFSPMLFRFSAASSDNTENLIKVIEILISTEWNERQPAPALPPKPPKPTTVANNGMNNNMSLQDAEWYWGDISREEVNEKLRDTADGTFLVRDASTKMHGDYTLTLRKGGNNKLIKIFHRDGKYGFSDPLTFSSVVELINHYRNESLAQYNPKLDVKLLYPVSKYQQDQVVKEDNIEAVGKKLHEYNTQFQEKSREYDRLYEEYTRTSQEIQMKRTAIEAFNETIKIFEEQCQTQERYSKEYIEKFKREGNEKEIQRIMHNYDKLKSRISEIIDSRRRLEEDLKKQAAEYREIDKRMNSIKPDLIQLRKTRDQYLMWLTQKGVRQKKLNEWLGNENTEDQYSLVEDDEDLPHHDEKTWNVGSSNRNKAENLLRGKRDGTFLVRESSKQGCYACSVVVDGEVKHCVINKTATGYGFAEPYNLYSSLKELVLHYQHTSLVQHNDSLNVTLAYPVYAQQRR
UniProt Q6PHN9: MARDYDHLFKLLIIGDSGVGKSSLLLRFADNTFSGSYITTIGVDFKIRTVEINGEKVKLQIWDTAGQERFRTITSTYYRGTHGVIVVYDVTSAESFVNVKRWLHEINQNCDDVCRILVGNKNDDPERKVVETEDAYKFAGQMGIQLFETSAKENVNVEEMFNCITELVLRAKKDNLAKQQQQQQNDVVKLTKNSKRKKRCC
UniProt Q15286: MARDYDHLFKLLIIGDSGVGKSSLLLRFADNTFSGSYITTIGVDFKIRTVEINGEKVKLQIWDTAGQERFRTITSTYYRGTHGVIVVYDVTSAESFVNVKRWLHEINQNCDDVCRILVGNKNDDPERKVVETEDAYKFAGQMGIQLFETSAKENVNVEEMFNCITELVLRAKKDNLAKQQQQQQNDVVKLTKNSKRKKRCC

How the values were obtained:
[1] = molecular target: p85α, the regulatory subunit of PI3K (mouse (endogenous in MEFs)) (UniProt P26450); test: co-IP; serum-starved control MEFs (and p85α−/− p85β−/− double KO MEFs as control), stimulated or not for 10 min with PDGF; 1 mg lysate immunoprecipitated with anti-p85α monoclonal antibody or irrelevant IgG; immunoblot
[2] = molecular target: p85α (endogenous, HeLa) (human (endogenous in HeLa)) (UniProt P27986); test: co-IP; serum-starved HeLa cells transfected with EGFP-fused RAB35 WT, S22N or Q67L, mock treated or stimulated with HGF for 10 min; 1 mg lysate immunoprecipitated with anti-p85α antibody or irrelevant IgG; immunoblot

| Substance | binding [1] | binding [2] |
| --- | --- | --- |
| RAB35 (from UniProt Q6PHN9 1-201) | binds |  |
| RAB35 S22N fused to EGFP (from UniProt Q15286 1-201) |  | no binding |
| RAB35Q67L fused to EGFP (from UniProt Q15286 1-201) |  | binds |
| RAB35 WT fused to EGFP (from UniProt Q15286 1-201) |  | binds |
